This assay addresses Enolase-1 (human (endogenous in H357CisR)) (UniProt P06733). Briefly: co-IP; cells lysed in 1% digitonin 30 min on ice; lysate with primary antibody 1-4 h, Protein A/G PLUS-Agarose overnight at 4°C; 4 washes in 0.2% digitonin; SDS-PAGE and immunoblot.

Amino acid sequences for entries named in this document (tags omitted).
UniProt P06733: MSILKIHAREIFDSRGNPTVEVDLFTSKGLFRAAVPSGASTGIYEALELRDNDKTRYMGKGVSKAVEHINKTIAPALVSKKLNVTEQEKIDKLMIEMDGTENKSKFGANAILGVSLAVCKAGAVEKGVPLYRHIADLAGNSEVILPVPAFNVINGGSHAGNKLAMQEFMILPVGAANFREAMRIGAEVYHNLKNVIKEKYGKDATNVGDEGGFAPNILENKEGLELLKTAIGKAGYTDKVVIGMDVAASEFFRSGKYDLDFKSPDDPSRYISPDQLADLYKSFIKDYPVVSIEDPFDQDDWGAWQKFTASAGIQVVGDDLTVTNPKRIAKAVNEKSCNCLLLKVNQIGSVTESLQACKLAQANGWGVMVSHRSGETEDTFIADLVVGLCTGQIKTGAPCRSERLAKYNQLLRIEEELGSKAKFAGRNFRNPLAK

Results are given in words; binding and its absence hold for the method and conditions named. In cells and extracts the contact can be indirect. Some binding calls cover weakened binding; strength is not graded here. Where a sequence is shown, tags or fusion partners need not be part of it.

The values that follow come from paper PMC7934946.

B1: CMTM6 (protein, UniProt Q9NX76 1-183)
chain: MENGAVYSPTTEEDPGPARGPRSGLAAYFFMGRLPLLRRVLKGLQLLLSLLAFICEEVVSQCTLCGGLYFFEFVSCSAFLLSLLILIVYCTPFYERVDTTKVKSSDFYITLGTGCVFLLASIIFVSTHDRTSAEIAAIVFGFIASFMFLLDFITMLYEKRQESQLRKPENTTRAEALTEPLNA
In the case of B1, the binding result is on record as “binds”.

B2: CMTM6 (MYC-DDK tagged), from pCMV6-Entry-CMTM6 (protein, UniProt Q9NX76 1-183)
chain: B1 chain
On to B2, for which the binding result is recorded as “binds”.
